From paper PMC9893541
No constants are given. Whether binding was seen depends on the method and setting. Some results given as binding are weak or reduced against the parent protein; the word gives no strength. For some assays here: Where a sequence is shown, tags or fusion partners need not be part of it.

Amino acid sequences for entries named in this document (tags omitted). A change or cut given only in a name is not applied to a line headed by its entry. Chains listed by the source or under a name are the forms on record and can include a tag or linker. Residues count along the entry.
UniProt P37023, residues 22-118: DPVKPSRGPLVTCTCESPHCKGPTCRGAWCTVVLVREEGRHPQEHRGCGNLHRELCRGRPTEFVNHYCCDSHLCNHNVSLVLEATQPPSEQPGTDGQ
BMP2 homodimer (P12643, residues 283-396): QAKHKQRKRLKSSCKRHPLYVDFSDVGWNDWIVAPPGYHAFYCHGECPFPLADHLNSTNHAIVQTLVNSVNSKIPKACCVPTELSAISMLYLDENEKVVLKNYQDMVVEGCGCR
BMP2 homodimer with the L333P mutation (P12643, form named): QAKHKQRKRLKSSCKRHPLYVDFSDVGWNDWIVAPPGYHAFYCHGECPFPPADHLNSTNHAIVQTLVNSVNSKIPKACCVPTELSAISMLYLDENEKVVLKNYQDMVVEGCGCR
UniProt P43026, residues 382-501: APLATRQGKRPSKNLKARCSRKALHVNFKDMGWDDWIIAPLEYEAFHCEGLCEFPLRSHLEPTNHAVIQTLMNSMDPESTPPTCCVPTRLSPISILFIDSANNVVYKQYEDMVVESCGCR

What was measured:
Assay in all cases: SPR; BIAcore T-200; chimeric Fc-type 1 receptor coupled to a Series S Protein A chip; ligands 6.25-0.049 nM flowed at 50 uL/min, 300 s association, 1000 s dissociation; 20 mM HEPES pH 7.4, 350 mM NaCl, 0.005 % P-20, 0.5 mg/mL BSA, 3.4 mM EDTA; kinetic 1:1 fit (also a bivalent fit); apparent KD = kd/ka; average of N=2; both purified
FC-(Alk1)2 = FC-(Alk1)2 (UniProt P37023)
FC-(Alk6)2 = molecular target: T1, FC-(Alk6)2 (UniProt O00238)
T1 sequence: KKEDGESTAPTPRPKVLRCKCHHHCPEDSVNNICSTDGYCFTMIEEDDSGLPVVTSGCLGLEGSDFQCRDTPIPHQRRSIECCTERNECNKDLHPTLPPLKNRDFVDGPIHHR

FC-(Alk2)2 = molecular target: T2, FC-(Alk2)2 (UniProt Q04771)
T2 sequence: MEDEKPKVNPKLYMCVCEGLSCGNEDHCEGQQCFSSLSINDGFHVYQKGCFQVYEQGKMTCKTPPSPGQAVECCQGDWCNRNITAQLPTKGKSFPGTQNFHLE

Row | Substance | binding (FC-(Alk1)2) | binding (FC-(Alk6)2) | binding (FC-(Alk2)2)
1 | BMP2/GDF5 heterodimer (from UniProt P12643 283-396; P43026 382-501) (complex) | binds weakly |  | 
2 | BMP2 homodimer with the L333P mutation (from UniProt P12643 283-396) (ligand) |  | no binding (tested: 6.25 nM (highest ligand concentration)) | 
3 | GDF5 homodimer (from UniProt P43026 382-501) (ligand) | binds weakly |  | binds weakly
4 | BMP2 homodimer (from UniProt P12643 283-396) (ligand) | binds weakly |  | 
